In test [1] the target is Recombinant S. cerevisiae PCNA with an His-Tag (S. cerevisiae) (UniProt P15873). Briefly: condition: 270 μM peptide in the syringe, 20–25 μM PCNA in the cell; ITC; VP-ITC; 20–25 μM PCNA in the cell, 270 μM peptide in the syringe; 30°C; buffer T (20 mM Tris pH 7.5, 50 mM NaCl, 20 mM β-mercaptoethanol); single set of independent binding sites model; both purified.
The target of test [2] is T1, Pol31 fused to the lexA binding domain (pBTM116-Pol31) (S. cerevisiae) (UniProt P46957).
T1 sequence: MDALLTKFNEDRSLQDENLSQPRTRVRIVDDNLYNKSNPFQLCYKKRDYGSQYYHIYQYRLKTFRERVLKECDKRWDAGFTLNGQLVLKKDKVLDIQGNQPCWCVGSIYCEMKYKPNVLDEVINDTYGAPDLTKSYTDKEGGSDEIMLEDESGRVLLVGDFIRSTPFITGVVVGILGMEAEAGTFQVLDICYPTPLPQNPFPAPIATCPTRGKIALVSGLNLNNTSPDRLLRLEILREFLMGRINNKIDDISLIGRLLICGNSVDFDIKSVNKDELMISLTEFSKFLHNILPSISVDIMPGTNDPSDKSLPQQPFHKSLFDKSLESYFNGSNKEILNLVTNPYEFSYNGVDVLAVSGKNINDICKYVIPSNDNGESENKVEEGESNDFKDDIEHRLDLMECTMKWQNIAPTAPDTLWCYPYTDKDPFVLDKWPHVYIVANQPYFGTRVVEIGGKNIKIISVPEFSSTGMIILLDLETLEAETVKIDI
Briefly: two-hybrid; strain CTY10-5d; Pol31 on the lexA binding domain (pBTM116), Pol3 1032–1097 on the Gal4 activating domain (pACT2); β-galactosidase overlay plate assay at 22°C and 30°C.

By UniProt entry, the sequences of proteins in these tests, tags left out.
UniProt P15873: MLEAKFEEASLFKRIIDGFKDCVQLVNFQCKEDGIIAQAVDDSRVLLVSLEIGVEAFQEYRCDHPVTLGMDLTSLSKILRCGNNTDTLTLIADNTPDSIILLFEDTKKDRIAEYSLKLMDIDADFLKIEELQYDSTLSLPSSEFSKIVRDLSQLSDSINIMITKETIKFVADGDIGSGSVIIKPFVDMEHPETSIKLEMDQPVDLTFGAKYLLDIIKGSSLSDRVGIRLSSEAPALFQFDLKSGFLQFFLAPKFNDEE

For test [3], the target named is T2, Pol31-D304N fused to the lexA binding domain (pBTM116-Pol31-D304N) (S. cerevisiae) (UniProt P46957).
T2 sequence: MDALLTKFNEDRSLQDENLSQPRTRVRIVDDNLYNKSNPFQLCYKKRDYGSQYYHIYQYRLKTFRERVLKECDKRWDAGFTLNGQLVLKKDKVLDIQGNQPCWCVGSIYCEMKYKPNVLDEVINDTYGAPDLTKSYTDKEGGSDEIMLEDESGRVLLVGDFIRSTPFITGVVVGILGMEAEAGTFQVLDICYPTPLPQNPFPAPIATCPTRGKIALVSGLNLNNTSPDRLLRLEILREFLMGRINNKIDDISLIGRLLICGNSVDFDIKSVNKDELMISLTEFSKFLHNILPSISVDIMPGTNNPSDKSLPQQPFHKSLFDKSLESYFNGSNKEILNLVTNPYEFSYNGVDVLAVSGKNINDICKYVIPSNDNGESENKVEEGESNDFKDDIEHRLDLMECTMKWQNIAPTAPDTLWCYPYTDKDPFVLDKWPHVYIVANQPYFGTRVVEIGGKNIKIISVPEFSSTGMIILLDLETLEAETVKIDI
The description is as above.

Results are given in words; binding and its absence hold for the method and conditions named. Some entries that bind do so weakly or less than the wild type. For some of these results: Tags and fused reporters may be left off the sequences shown.

B1: pPol3 992–1012 (peptide)
peptide: TGSQKGGLMSFIKKVEACKSC
In the case of B1, in test [1], the binding entry is “no binding”.

B2: Pol3 C-terminal amino acids 1032–1097 fused to the Gal4 activating domain (pACT2-Pol3-CTD) (domain or fragment, UniProt P15436 1032-1097)
chain: GELYIKALYDVRDLEEKYSRLWTQCQRCAGNLHSEVLCSNKNCDIFYMRVKVKKELQEKVEQLSKW
Consider B2, for which the binding result is “binds” in test [2] and “no binding” in test [3].

B3: Pol3-R1043G, C-terminal amino acids 1032–1097 fused to the Gal4 activating domain (pACT2-Pol3-R1043G) (domain or fragment, UniProt P15436 1032-1097)
chain: GELYIKALYDVGDLEEKYSRLWTQCQRCAGNLHSEVLCSNKNCDIFYMRVKVKKELQEKVEQLSKW
Consider B3, for which the binding result in test [2] is listed as “binds weakly”.

(Values after PMC5760103, “The translesion DNA polymerases Pol ζ and Rev1 are activated independently of PCNA ubiquitination upon UV radiation in mutants of DNA polymerase δ” (PLoS Genetics, 2017).)
